Some of the results follow. The main result of the screen is listed elsewhere. These columns were measured beside it and carry no call. Most of these compounds were active or inconclusive in the main read-out, so they are no random draw. Potencies come from curve fits of mixed quality, noted in brackets.
Assay: qHTS Assay to Find Inhibitors of Chronic Active B-Cell Receptor Signaling
Details: ABC-DLBCL IkBa-CBG/CBR reporter, luminescence ratio (green luciferase fused to IkBa over red control in TMD8 lymphoma cells), 4 h
Method in brief: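 Concentration-response series (up to 46 uM) were applied to TMD8 dual-reporter cells for 4 h at 37C with doxycycline. Green/red ratio, after filter-overlap correction, defined %Activity; red signal alone was normalised to basal cells and zero luminescence.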

[1] = measured here: CBR red luminescence, cell number
[2] = measured here: IkBa-CBG green luminescence

SMILES | AC50 [1] | AC50 [2]
C#CCOCCOCCOCCNc1nc(N2CCN(C(=O)CCCCCCCCCCNC(=O)[C@H](CCCCN)n3cc(CCO)nn3)CC2)nc(N2CCN(C(=O)CCCCCCCCCCNC(=O)[C@H](CCCCN)n3cc(C[C@@H](C)CC)nn3)CC2)n1 | 29.1 µM [rising, single point] | 
Cc1ccc(-c2cc(C(=O)N/N=C/c3c(C)nn(C)c3C)c3ccccc3n2)cc1C | 7.31 µM [rising, partial curve] | 
O=C(NN1CCOCC1)c1cc(-c2cccc(Cl)c2)nc2ccccc12 | 35.5 µM [rising, single point] | 
COc1cc(/C=C(/C(=O)c2cccs2)c2nc3ccccc3[nH]2)ccc1O | 0.891 µM [falling, partial curve, poor fit] | 
Cc1ccc(Cn2ccc(NC(=O)c3cc(C)on3)n2)cc1 | 0.0651 µM [falling, full curve, poor fit] | 
O=C(Oc1c(-c2ccccc2)c(=O)n2c3c(cccc13)CC2)c1cccc([N+](=O)[O-])c1 | 3.16 µM [falling, partial curve, poor fit] | 
O=S(=O)(NC1CC1)c1ccc(S(=O)(=O)N2CCCC3(CCCCC3)C2)cc1 | 6.51 µM [falling, single point] | 6.51 µM [rising, partial curve, poor fit]
CCCCCCN(C(=O)CCCCCN1C(=O)NC(c2cccc([N+](=O)[O-])c2)C(C(=O)OCc2ccccc2)=C1C)C(C(=O)NCCCC)c1ccc(OCC(=O)OC)c(C(=O)OC)c1 (stereo unspecified) | 35.5 µM [falling, single point] | 
COc1ccccc1NC1=CC(=O)CC(c2ccccc2)C1 (stereo unspecified) |  | 20.6 µM [falling, partial curve, poor fit]
N#CC1(NC(=O)CSc2nnc(Nc3ccccc3F)s2)CCCC1 | 29.1 µM [rising, single point] | 
COc1cccc(Oc2coc3c(CN4CCOCC4)c(O)ccc3c2=O)c1 | 15.8 µM [rising, partial curve, poor fit] | 
COc1ccc(NC(=O)/C(Cl)=C(/Cl)S(=O)(=O)Cc2ccc(C)cc2)cn1 | 2.31 µM [falling, full curve, poor fit] | 
O=C(NC1CCCC1)c1ccc(CN2CCOCC2)cc1 | 6.51 µM [falling, single point] | 
CCOc1ccc(-c2nc(CSc3nnc(C)s3)cs2)cc1OC | 6.51 µM [rising, partial curve, poor fit] | 11.6 µM [falling, partial curve, poor fit]
Cc1ccc(NC(=O)COc2cccc(/C=C3\SC(=S)N(CCC(=O)O)C3=O)c2)cc1Cl | 0.282 µM [falling, full curve] | 
COc1cccc(/C=N/NC(=O)CCCc2ccc(OC)c(C)c2)c1 | 29.1 µM [rising, single point] | 
CCOC(=O)c1sc(=NC(=O)CCSc2ccccc2)n(C)c1C | 2 µM [rising, partial curve] | 
O=C(CN1CCOCC1)NCCC12CC3CC(CC(C3)C1)C2 | 23.1 µM [rising, single point] | 
CC(=O)CC(=O)Nc1ccc(Cl)cn1 | 12.6 µM [falling, partial curve, poor fit] | 
COc1ccc(OC)c(NC(=O)CSc2nncc3ccccc23)c1 | 35.5 µM [falling, partial curve, poor fit] | 
Cc1ccc(C2CC(c3ccccc3)=NN2c2ccccc2)o1 (stereo unspecified) | 13 µM [rising, partial curve, poor fit] | 

SMILES | AC50 [1] | AC50 [2]
Cc1ccc(SCCC(=O)Nc2ccccc2C(=O)NC(C)C)cc1 | 29.1 µM [falling, single point] | 
CCOC(=O)CCC(=O)NNC(=O)c1ccc(NC(=O)c2ccccc2)cc1 | 28.2 µM [falling, single point] | 
O=C(NC1CCCc2ccccc21)c1ccc(Br)cc1 (stereo unspecified) | 29.1 µM [falling, single point] | 
COc1ccccc1-c1cc(C(=O)Nc2cccnc2Cl)no1 | 0.1 µM [falling, full curve] | 
N/C(=N\OC(=O)c1ccc(Br)o1)c1ccccn1 | 7.08 µM [falling, partial curve, poor fit] | 
CC(C)(c1ccccc1)c1ccc(OCC(O)CNC2CCN(Cc3ccccc3)CC2)cc1 (stereo unspecified) | 35.5 µM [falling, single point] | 
COc1ccc(/C=N/NC(=O)c2cccnc2)cc1 | 7.08 µM [falling, full curve] | 
Clc1ccc(OCc2nnc(-c3ccccc3Br)o2)c(Cl)c1 | 0.708 µM [rising, full curve, poor fit] | 
O=C(NNc1nc2ccccc2s1)Nc1ccccc1 | 29.1 µM [falling, single point] | 
CCn1c(=O)cc(SCC(=O)NCC2CCCO2)c2ccccc21 (stereo unspecified) | 2.59 µM [rising, full curve, poor fit] | 
COC(=O)Cn1c(=NC(=O)c2nc3ccccc3s2)sc2cc(S(C)(=O)=O)ccc21 | 7.31 µM [rising, partial curve] | 
Cc1nn(Cc2cccc(C(=O)NN)c2)c(C)c1Cl | 7.08 µM [falling, partial curve] | 
CC(NCc1cc(Br)ccc1OCC(=O)NCc1ccccc1)c1ccccc1 (stereo unspecified) | 15.8 µM [falling, single point] | 
C/C(=N\NC(=O)c1ccc(O)cc1)c1cccc(NC(=O)c2ccccc2C)c1 | 0.708 µM [falling, full curve] | 
COc1cccc(CNS(=O)(=O)c2ccc3c(c2)CC(C)N3C(=O)C2CC2)c1 (stereo unspecified) | 3.16 µM [falling, partial curve, poor fit] | 
C/C(=N\Nc1nc(Nc2ccccc2)nc(N2CCOCC2)n1)c1cccs1 | 11.2 µM [falling, partial curve, poor fit] | 
Cc1ccc2c(-c3csc(N)n3)c[nH]c2c1 | 15.8 µM [falling, partial curve, poor fit] | 
CCOc1ccc(C2=C/C(=C/c3cccnc3)C(=O)O2)cc1 | 25.9 µM [rising, partial curve, poor fit] | 
COc1cc(/C=C(\C#N)C(=O)Nc2ccccc2C(=O)O)cc(Cl)c1OC | 35.5 µM [falling, single point] | 
CC1(O)CC(c2ccc(Cl)cc2)=NN1C(=O)c1ccc([N+](=O)[O-])cc1 (stereo unspecified) | 3.55 µM [falling, partial curve, poor fit] | 
O=[N+]([O-])c1ccc(O)c(/C=N/Nc2ccccc2Cl)c1 | 11.2 µM [falling, partial curve] | 

SMILES | AC50 [1] | AC50 [2]
Cn1ccnc1SCC(=O)c1ccc([N+](=O)[O-])cc1 | 15.8 µM [rising, partial curve, poor fit] | 
Cc1ccc(NC(=O)c2oc3ccccc3c2C)c([N+](=O)[O-])c1 | 5.62 µM [rising, full curve, poor fit] | 
C=CCn1c(SCC(=O)NCc2ccco2)nc2ccccc2c1=O | 11.2 µM [falling, partial curve] | 
CCN(CC)CCn1c2ccccc2c2cnc(N)c(C#N)c21 | 3.55 µM [falling, partial curve, poor fit] | 
COc1ccc(CCNc2ccc(C)cc2)cc1 | 8.2 µM [rising, partial curve, poor fit] | 
COc1ccc(OC)c(S(=O)(=O)NC2CC2)c1 | 6.31 µM [rising, partial curve, poor fit] | 
c1ccc(-c2cc3n(c2)CCc2ccccc2-3)cc1 | 29.1 µM [falling, single point] | 
CNC(=O)C(C)NS(=O)(=O)c1ccc(F)cc1 (stereo unspecified) | 3.26 µM [rising, single point] | 
O/N=C/c1ccnc(SCc2ccccc2)n1 | 0.355 µM [rising, partial curve, poor fit] | 
CSc1cccc(NC(=O)N2CCc3ccc(NC(=O)c4ccccn4)cc3C2)c1 | 35.5 µM [falling, single point] | 
CCOc1ccccc1NC(=O)CSc1nnc(CNC(=O)c2cccs2)o1 | 31.6 µM [falling, partial curve, poor fit] | 
CC(C)C(=O)NNC(=O)CSc1nnc(-c2ccccc2)c(-c2ccccc2)n1 | 3.55 µM [rising, single point] | 
CCCCCCC(=O)Nc1nc(C)c(-c2csc(Nc3cc(Cl)ccc3C)n2)s1 | 8.91 µM [falling, partial curve] | 
CNc1nc(N)c([N+](=O)[O-])c(Nc2cccc(Cl)c2)n1 | 3.98 µM [rising, full curve, poor fit] | 
O=C(CCSc1nc(-c2ccco2)cc(C(F)(F)F)n1)NCc1cccs1 |  | 23.1 µM [rising, partial curve, poor fit]
Cc1ccc(-n2c(C)csc2=N)cc1 | 29.1 µM [rising, single point] | 
CC(C)CNC(=O)/C=C/c1cccs1 | 25.9 µM [falling, single point] | 
COC(=O)c1sccc1NC(=S)N1CC(C)CC(C)C1 (stereo unspecified) | 6.51 µM [rising, partial curve] | 
Cc1ccc(-c2csc3ncnc(N4CCN(c5ccccc5O)CC4)c23)cc1 | 0.316 µM [rising, full curve, poor fit] | 
Cc1nn(-c2nc3ccccc3s2)c(N)c1-c1ccc(Cl)cc1 | 18.4 µM [rising, partial curve] | 
O=C1N[C@@H](Cc2ccccc2)C(=O)N2[C@H]1C[C@]1(Br)c3ccccc3N(S(=O)(=O)c3ccccc3)[C@H]21 | 16.4 µM [falling, single point] | 32.6 µM [rising, partial curve, poor fit]

Quoted at random: 3 records from the list
SMILES | AC50 [1] | AC50 [2]
Cc1ccc(-c2csc3ncnc(N4CCN(c5ccccc5O)CC4)c23)cc1 | 0.316 µM [rising, full curve, poor fit] | 
O=C(CCSc1nc(-c2ccco2)cc(C(F)(F)F)n1)NCc1cccs1 |  | 23.1 µM [rising, partial curve, poor fit]
COc1ccc(CCNc2ccc(C)cc2)cc1 | 8.2 µM [rising, partial curve, poor fit] | 
